Test system: MDA-MB-231
Assay: Cell proliferation assay (CellTiter-Glo, ATP luminescence)
Type: cell-based
Conditions: Homo sapiens, MDA-MB-231, 72 h, 0.05 to 5 µM in Doxo, n = 4 in quadruplicate
Procedure: The cytotoxicity profiles of the NF-Doxo and NF-Doxo-SPION were established on cancer cell line MDA-MB-231 (triple negative human breast cancer). Triple MDA-MB-231 (ECACC, Salisbury, UK) cells were cultured at 37 °C in an atmosphere containing 5% CO2. The culture medium was made of DMEM supplemented with 10% fetal bovine serum, 1% non-essential amino acid (Hyclone Laboratories, Logan, UT, USA), and 1% penicillin/streptomycin (Gibco®, Life Technologies, Paisley, UK). The cell harvesting was made with trypsin/EDTA (0.05%) (Gibco®, Life Technologies, Paisley, UK) at 80% of confluence.
Cell viability and proliferation were studied, using a luminescent test based on quantification of ATP, using the CellTiter-Glo cell proliferation assay (Promega, Madison, WI, USA). Briefly, 3.000 MDA-MB-231 cells were incubated in 100 μL of medium in 96-well plates for 24 h and then treated with different samples. A H2O2 solution at 10 mM was used as positive control and the culture medium alone was tested as a negative control. Doxo (stock solution at 5.24 mM in PBS) was used as a reference. […] Cell viability was then determined using CellTiter-Glo reagent (Promega, Madison, WI, USA). […] The luminescence values were measured with a gain at 135, with an acquisition at 0.5 s, using a microplate reader (Bio-Tek® instruments, Inc., VT, Santa Clara, CA, USA). […]

IC50: 154 nM
Structure (SMILES): COc1cccc2c1C(=O)c1c(O)c3c(c(O)c1C2=O)C[C@@](O)(C(=O)CO)C[C@@H]3O[C@H]1C[C@H](N)[C@H](O)[C@H](C)O1 [Doxo, Doxorubicin]
